Results on 63 molecules are retold here after PubChem BioAssay AID493014 (National Center for Advancing Translational Sciences (NCATS), 2011).

The nature of this experiment: qHTS Assay to Find Inhibitors of Chronic Active B-Cell Receptor Signaling. The conditions noted are these: ABC-DLBCL IkBa-CBG/CBR reporter, luminescence ratio (green luciferase fused to IkBa over red control in TMD8 lymphoma cells), 4 h. Put shortly:
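Cell line TMD8 (human ABC DLBCL), stably expressing tet-inducible CBG68-IkBa fusion and CBR; IMDM/0.5% FBS; cpd up to 46 uM; dox induction, 4 h, 37C/5% CO2; dual luminescence; green/red ratio; MG132 control.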

Where [1] appears, read: measured here: CBR red luminescence, cell number.
Where [2] appears, read: measured here: IkBa-CBG green luminescence.

Molecules are shown by their SMILES. The list shows a part of the results. Shown are side measurements of this screen, not its main read-out; they come without a call. Compounds called inactive in the main read-out are mostly missing here. Words in brackets tell the shape of the fitted curve; partial curves, single points and poor fits give uncertain potencies.

In the case of `O=S(=O)(c1ccc(Cl)cc1)N1CCCN(c2ccc(C(F)(F)F)cn2)CC1`, under setting [1], the AC50 (commonly the concentration giving half of the maximal activity seen) was 8.91 µM [falling, partial curve, poor fit].
Same read-out and setting: in the case of `O=C(O)CC/C(=C\c1ccc(N2CCCC2)c([N+](=O)[O-])c1)c1nc2ccccc2s1` it was 0.0891 µM [rising, full curve, poor fit]; in that of `Cc1cccc(CCNC(=O)CCNC(=O)Cn2ccc3ccccc3c2=O)c1`, 16.4 µM [rising, partial curve, poor fit]; in that of `O=C(NC1CCN(C(=S)NCc2ccco2)CC1)NC12CC3CC(CC(C3)C1)C2`, 3.16 µM [falling, full curve, poor fit].
On the same count and under the same terms, the result for `CCCc1cc(=O)oc2c(C)c(OC3CCCCC3=O)ccc12` (stereo unspecified) reads 5.62 µM [falling, partial curve, poor fit]; that for `CCCCn1c(NCc2cc(Cl)ccc2O)nc2ccccc21`, 15.8 µM [falling, single point]; that for `CCOC(=O)C(C(=O)OCC)C(Nc1ccccc1)c1ccccc1` (stereo unspecified), 10.3 µM [falling, partial curve, poor fit].
The same measure, in the same setting: the result for `CN1CCN(Cn2cc(/C=C/C(=O)c3ccccc3)c3ccccc32)CC1` reads 5.8 µM [falling, partial curve].
As to `COc1cc([N+](=O)[O-])cc2sc(NC(=O)C3CC3)nc12`, the concentration at half-maximal activity (AC50) under setting [1] was 2.51 µM [falling, full curve].
Same read-out and setting: the result for `Cn1c2ccccc2c2nnc(SCC(=O)Nc3cccc(O)c3)nc21` reads 15.8 µM [falling, single point]; that for `COc1ccc(NC(=O)CC2C(=O)N(c3ccc(F)cc3)C(=S)N2NC(=O)c2ccc(Cl)cc2)cc1` (stereo unspecified), 16.4 µM [falling, partial curve]; that for `O=C(CN1CCN(S(=O)(=O)c2ccccc2)CC1)Nc1ccccc1C(=O)NC1CC1`, 9.2 µM [rising, partial curve].
Same read-out and setting: the result for `CC(C)N1CCc2c(sc(NC(=O)c3ccc(S(=O)(=O)N4CCc5ccccc54)cc3)c2C(N)=O)C1` reads 10 µM [falling, partial curve, poor fit]; that for `N#Cc1c(N)n(Cc2ccccc2)c(=O)c2cc([N+](=O)[O-])ccc12`, 5.01 µM [rising, full curve, poor fit].
For the molecule `O=C(O)CCn1nnc(-c2ccccc2)n1`, under setting [1], the AC50 was 3.98 µM [rising, partial curve, poor fit].
Still for that read-out and setting: in the case of `COc1ccccc1N1CCN(CC(O)COc2c(OC)cccc2OC)CC1` (stereo unspecified) it was 28.2 µM [rising, partial curve, poor fit]; in that of `Cc1ccccc1NC(=O)C(=O)NCCc1c[nH]c2ccccc12`, 10 µM [falling, partial curve, poor fit].
Same read-out and setting: the result for `Cc1cc(Nc2ccccc2)c2c([N+](=O)[O-])c(C)cc(C)c2n1` reads 29.1 µM [rising, single point]; that for `FC(F)(F)c1cccc(Oc2nc(-c3ccccc3)nnc2C(F)(F)F)c1`, 3.16 µM [falling, full curve].
Regarding `Cc1cc(C)nc(NC(=O)c2c(Cl)cccc2Cl)n1`, under setting [1], the AC50 is 4.47 µM [falling, full curve].
On the same count and under the same terms, the result for `O=[N+]([O-])c1cccc(C2=NCCS2)c1` reads 2.31 µM [rising, full curve, poor fit]; that for `Cc1cc(C)cc(N=C2NC(=O)/C(=C/c3cccs3)S2)c1`, 8.2 µM [falling, partial curve, poor fit].
As to `O=C(Nc1cccc(S(=O)(=O)N2CCOCC2)c1)c1cn(-c2ccccc2)nc1-c1ccc(F)cc1`, under setting [2], the AC50 was 2.91 µM [falling, partial curve, poor fit].
With `CCN(CC)c1ccc(S(=O)(=O)N2CCOCC2)cc1NC(=O)CSc1nncs1`, the AC50 under setting [1] was 20.6 µM [rising, single point].
On the same count and under the same terms, in the case of `Cc1cc(C)c(O)c(-c2cc(C(=O)Nc3cccnc3)[nH]n2)c1` it was 14.1 µM [falling, partial curve, poor fit].
The same measure, in the same setting: in the case of `Cc1nc2scc(C)n2c(=O)c1S(=O)(=O)N1CCN(c2cccc(C(F)(F)F)c2)CC1` it was 4.47 µM [rising, full curve, poor fit]; in that of `CCCCNC(=O)c1ccccc1NC(=O)c1ccccc1N(C)S(C)(=O)=O`, 0.116 µM [falling, full curve, poor fit]; in that of `CCOC(=O)CC(=O)CSc1ncnc2c1nnn2-c1ccc(F)cc1`, 35.5 µM [falling, single point].
Still for that read-out and setting: in the case of `CCOC(=O)c1c(NC(=O)CSc2nnc(Cc3ccccc3)o2)sc(C)c1C` it was 18.4 µM [falling, single point].
For `Cc1cccc(NC(=O)CSc2nc3[nH]ncc3c(=O)[nH]2)c1C`, the concentration at half-maximal activity (AC50) under setting [1] was 10.3 µM [falling, partial curve, poor fit].
Same read-out and setting: the result for `O=C1Nc2ccccc2S/C1=C\C(=O)N1CCCC1` reads 17.8 µM [falling, single point]; that for `O=C(NCCOc1ccccc1F)c1cc(F)c(F)cc1Cl`, 3.66 µM [rising, full curve, poor fit]; that for `OCCCNc1cc(-c2ccccc2)nc2cc(-c3ccc(F)cc3)nn12`, 1.12 µM [falling, full curve, poor fit].
The same measure, in the same setting: in the case of `CCOc1cccc(OCCCOc2ccccc2)c1` it was 13 µM [rising, partial curve, poor fit]; in that of `Cc1cc(C)c(S(=O)(=O)N2CCN(C(=O)C3COc4ccccc4O3)CC2)c(C)c1` (stereo unspecified), 2.59 µM [rising, full curve].
With `CCC(CC)C(=O)c1c[nH]c(C(=O)NCCc2ccccn2)c1`, under setting [1], the AC50 is 12.6 µM [rising, partial curve].
The same measure, in the same setting: in the case of `CCOc1ccccc1Nc1ncnc2c1cnn2-c1ccccc1` it was 29.1 µM [falling, single point].
Same read-out and setting: the result for `Cc1ccc(OCC(=O)N2N=C(c3cccnc3)CC2(O)C(F)(F)F)cc1C` (stereo unspecified) reads 29.1 µM [falling, single point].
Take `CSC1=NC(C)(C)C=C(/C=C/c2ccc(Cl)cc2Cl)N1`: the AC50 under setting [1] was 10 µM [falling, partial curve].
Consider `CCOC(=O)c1c(N)c2cc([N+](=O)[O-])cnc2n1C`, for which the AC50 under setting [2] is 17.8 µM [rising, partial curve, poor fit].
Turning to `CC(=O)N1CC(=O)N=C1SCC(=O)Nc1nc(C)c(-c2ccccc2)s1`, the AC50 under setting [1] is 1.58 µM [rising, partial curve, poor fit] and the AC50 under setting [2] was 11.2 µM [falling, partial curve].
With `CCCOc1ccc(-c2nc(=S)[nH][nH]2)cc1`, the half-maximal activity concentration (AC50) under setting [1] was 4.61 µM [rising, full curve, poor fit].
On the same count and under the same terms, in the case of `Cc1noc(C)c1C(=O)Nc1nc2ccccc2s1` it was 14.6 µM [falling, single point].
Same read-out and setting: the result for `NC(=O)c1cccn1Cc1cccc(Cl)c1` reads 6.51 µM [falling, single point].
The same measure, in the same setting: the result for `CC(C(=O)Nc1ccc2c(c1)OCCO2)N(C)Cc1c(F)cccc1Cl` (stereo unspecified) reads 22.4 µM [rising, single point]; that for `Cc1cc(N2C(=O)C(O)=C(C(=O)c3ccc(C)o3)C2c2cccc(Oc3ccccc3)c2)no1` (stereo unspecified), 22.4 µM [falling, single point]; that for `Cc1ccccc1N=C1NN=C(c2ccccc2F)CS1`, 23.1 µM [falling, single point].
Consider `CN(C)S(=O)(=O)c1ccc(NC(=O)CCCNC(=O)c2ccc(Cl)cc2)cc1`, for which the AC50 under setting [1] is 12.6 µM [falling, single point].
As to `COc1ccc(C(=O)/C=C2/c3ccccc3CC(C)(C)N2C)cc1`, the AC50 under setting [1] was 22.4 µM [rising, partial curve, poor fit] and the concentration at half-maximal activity (AC50) under setting [2] is 5.01 µM [falling, partial curve].
With `COC(=O)CSc1nnc(C2COc3ccccc3O2)n1-c1ccccc1` (stereo unspecified), the AC50 under setting [1] was 20.6 µM [falling, partial curve, poor fit].
In the case of `COc1ccccc1CNC(=O)CCC1N=C2c3ccccc3N=C(SCc3ccc(C)cc3)N2C1=O` (stereo unspecified), the concentration at half-maximal activity (AC50) is, setting by setting: under setting [1], 35.5 µM [falling, single point]; under setting [2], 35.5 µM [rising, partial curve, poor fit].
Take `COC(=O)c1c(NC(=O)Nc2ccc(Cl)cc2)sc(C)c1C`: the concentration at half-maximal activity (AC50) under setting [1] is 8.2 µM [falling, partial curve, poor fit].
Still for that read-out and setting: the result for `Cc1ccccc1NS(=O)(=O)c1cc2c3c(c1)CC(=O)N3CCC2` reads 1.26 µM [rising, full curve, poor fit].
Same read-out and setting: the result for `Cc1ccc(-c2cc(N)n[nH]2)cc1` reads 18.4 µM [falling, single point]; that for `Cc1ccc(C2C(C#N)=C(N)SC(N)=C2C#N)cc1`, 0.631 µM [rising, full curve, poor fit]; that for `O=c1cc(CSc2ccccc2)nc(-c2ccccc2)[nH]1`, 12.6 µM [falling, single point].
Still for that read-out and setting: in the case of `O=C(C1CCN(S(=O)(=O)c2ccccc2F)CC1)N1CCc2ccccc21` it was 29.1 µM [rising, single point]; in that of `COc1ccc2[nH]c(=O)c(CN(Cc3nnnn3Cc3ccco3)C3CCCCC3)cc2c1`, 17.8 µM [falling, single point]; in that of `Cc1cccnc1NC(=O)CCCc1c[nH]c2ccccc12`, 4.47 µM [falling, partial curve, poor fit].
Regarding `Clc1ccccc1-c1nnc2n1CCCCC2`, the concentration at half-maximal activity (AC50) under setting [1] is 2.51 µM [falling, full curve, poor fit].
Still for that read-out and setting: the result for `CCN(CC)CCCN(C(=O)c1cccs1)c1nc(-c2ccc(OC)cc2)cs1` reads 15.8 µM [falling, single point].
The same measure, in the same setting: the result for `COc1ccc(-c2csc(NC(=O)c3cc(C)on3)c2C#N)cc1OC` reads 23.1 µM [rising, partial curve, poor fit]; that for `CC(C)(C)NS(=O)(=O)c1ccc(N2C(=O)c3ccccc3C2=O)cc1`, 0.58 µM [rising, full curve, poor fit].
